This note sets out measurements from paper PMC6308570.

The exact form of at least one protein or probe is not confirmed.

This data set has as its system thrombin. The data set can be described thus: binding assay. As to conditions: Affinity buffer 50 mM Tris-HCl pH 7.4, 250 mM NaCl, 5 mM MgCl2; 2 h incubation; surface blocked with 1% BSA; temperature not stated; commercial protein; single-stranded DNA.

“AGTCCGTGGTAGGGCAGGTTGGGGTGACT [29-mer thrombin aptamer]”: the equilibrium dissociation constant (Kd) was determined as 0.5 nM.

As usually defined, the Kd is the free concentration of one partner at which half of the binding sites on the other are occupied at equilibrium, for simple one-to-one binding. A high value points to lower affinity.
